Data as given in PubChem BioAssay AID1224828 (NIAID, 2016)
Assay: 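Regulators linking TLR4 signalling to p65 nuclear translocation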 (primary screen). Cells: mouse RAW264.7 G9 macrophage reporter cells (GFP-p65, Tnf promoter-mCherry). Reagent: siRNA pool against mouse genes, 100 nM. Duration: 2 days siRNA transfection, then 40 min LPS before fixation. Treatment: LPS (Salmonella minnesota R595) at 10 ng/ml. Measurement: 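Microscopy ratio of nuclear to perinuclear-ring GFP-p65 signal, scaled to the plate median; gene score is the average of two replicate robust z-scores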. Reading the numbers: p65 translocation robust z-score: higher = more nuclear NF-kappaB p65 after LPS than the plate median; nuclear/cytoplasmic p65 ratio: higher = more nuclear NF-kappaB p65. Hit rule: 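Called active when z exceeds 3.3 or falls under -1.56 (median of Tlr4 controls), giving activity score of at least 50; no calls for control wells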. Meaning of the calls: active = hit (p65 shift raised or lowered); inactive = no clear change.
Shown is one part, drawn at random, of about 17,000 reagents. Of all reagents, 762 (4.5%) got an active call. 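Active calls include both raised and lowered p65 entry, mostly lowered; wells with fewer than 50 cells lack a z-score.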 Raw values are not corrected between plates.

Bcl2a1b → p65 translocation robust z-score = -0.16; nuclear/cytoplasmic p65 ratio, rep 1 = 1.61; nuclear/cytoplasmic p65 ratio, rep 2 = 1.57; low cell count flag = enough cells to score; Call = inactive
Lats2 → p65 translocation robust z-score = 0.78; nuclear/cytoplasmic p65 ratio, rep 1 = 1.39; nuclear/cytoplasmic p65 ratio, rep 2 = 1.47; low cell count flag = enough cells to score; Call = inactive
Strc → p65 translocation robust z-score = -0.81; nuclear/cytoplasmic p65 ratio, rep 1 = 1.44; nuclear/cytoplasmic p65 ratio, rep 2 = 1.43; low cell count flag = enough cells to score; Call = inactive
Tmprss11e → p65 translocation robust z-score = 0.11; nuclear/cytoplasmic p65 ratio, rep 1 = 1.76; nuclear/cytoplasmic p65 ratio, rep 2 = 1.5; low cell count flag = enough cells to score; Call = inactive
Chrna2 → p65 translocation robust z-score = -0.39; nuclear/cytoplasmic p65 ratio, rep 1 = 1.34; nuclear/cytoplasmic p65 ratio, rep 2 = 1.39; low cell count flag = enough cells to score; Call = inactive
Fabp9 → p65 translocation robust z-score = 3.16; nuclear/cytoplasmic p65 ratio, rep 1 = 2.12; nuclear/cytoplasmic p65 ratio, rep 2 = 1.84; low cell count flag = enough cells to score; Call = inactive
Osbpl2 → nuclear/cytoplasmic p65 ratio, rep 1 = 1.31; nuclear/cytoplasmic p65 ratio, rep 2 = 1.13; low cell count flag = fewer than 50 cells per well; well left out of scoring; Call = inactive
4930503L19Rik → nuclear/cytoplasmic p65 ratio, rep 1 = 1.26; nuclear/cytoplasmic p65 ratio, rep 2 = 1.32; low cell count flag = fewer than 50 cells per well; well left out of scoring; Call = inactive
Mob3b → p65 translocation robust z-score = 0.38; nuclear/cytoplasmic p65 ratio, rep 1 = 1.89; nuclear/cytoplasmic p65 ratio, rep 2 = 1.61; low cell count flag = enough cells to score; Call = inactive
Bicd2 → p65 translocation robust z-score = -0.82; nuclear/cytoplasmic p65 ratio, rep 1 = 1.49; nuclear/cytoplasmic p65 ratio, rep 2 = 1.5; low cell count flag = enough cells to score; Call = inactive
Oasl1 → p65 translocation robust z-score = 0.35; nuclear/cytoplasmic p65 ratio, rep 1 = 1.5; nuclear/cytoplasmic p65 ratio, rep 2 = 1.45; low cell count flag = enough cells to score; Call = inactive
Rab33b → p65 translocation robust z-score = 0.14; nuclear/cytoplasmic p65 ratio, rep 1 = 1.5; nuclear/cytoplasmic p65 ratio, rep 2 = 1.57; low cell count flag = enough cells to score; Call = inactive
Zfp947 → p65 translocation robust z-score = -1.43; nuclear/cytoplasmic p65 ratio, rep 1 = 1.24; nuclear/cytoplasmic p65 ratio, rep 2 = 1.36; low cell count flag = enough cells to score; Call = inactive

Targets above whose target name begins with B or b (2):
Bcl2a1b → p65 translocation robust z-score = -0.16; nuclear/cytoplasmic p65 ratio, rep 1 = 1.61; nuclear/cytoplasmic p65 ratio, rep 2 = 1.57; low cell count flag = enough cells to score; Call = inactive
Bicd2 → p65 translocation robust z-score = -0.82; nuclear/cytoplasmic p65 ratio, rep 1 = 1.49; nuclear/cytoplasmic p65 ratio, rep 2 = 1.5; low cell count flag = enough cells to score; Call = inactive

The results go on.
Tmem165 → nuclear/cytoplasmic p65 ratio, rep 1 = 0; nuclear/cytoplasmic p65 ratio, rep 2 = 1.38; low cell count flag = fewer than 50 cells per well; well left out of scoring; Call = inactive
Cldn18 → p65 translocation robust z-score = -1.02; nuclear/cytoplasmic p65 ratio, rep 1 = 1.41; nuclear/cytoplasmic p65 ratio, rep 2 = 1.65; low cell count flag = enough cells to score; Call = inactive
Slc9a9 → nuclear/cytoplasmic p65 ratio, rep 1 = 1.32; nuclear/cytoplasmic p65 ratio, rep 2 = 1.17; low cell count flag = fewer than 50 cells per well; well left out of scoring; Call = inactive
Otc → p65 translocation robust z-score = -0.45; nuclear/cytoplasmic p65 ratio, rep 1 = 1.38; nuclear/cytoplasmic p65 ratio, rep 2 = 1.36; low cell count flag = enough cells to score; Call = inactive
Ska1 → nuclear/cytoplasmic p65 ratio, rep 1 = 1.32; nuclear/cytoplasmic p65 ratio, rep 2 = 1.39; low cell count flag = fewer than 50 cells per well; well left out of scoring; Call = inactive
Golm2 → p65 translocation robust z-score = -0.24; nuclear/cytoplasmic p65 ratio, rep 1 = 1.58; nuclear/cytoplasmic p65 ratio, rep 2 = 1.69; low cell count flag = enough cells to score; Call = inactive
Ctc1 → p65 translocation robust z-score = -0.29; nuclear/cytoplasmic p65 ratio, rep 1 = 1.41; nuclear/cytoplasmic p65 ratio, rep 2 = 1.49; low cell count flag = enough cells to score; Call = inactive
Col10a1 → p65 translocation robust z-score = 0.53; nuclear/cytoplasmic p65 ratio, rep 1 = 1.56; nuclear/cytoplasmic p65 ratio, rep 2 = 1.44; low cell count flag = enough cells to score; Call = inactive
